Structures can show the parent of a compound that is named as a salt. The list shows a part of the results. Many values rest on one well or one pass, so single values are uncertain.
Each compound was assayed on Echinococcus multilocularis metacestodes (assay: vesicle damage (PGI release) relative to positive control DB1127 at 20 µM, DMSO subtracted; higher = more parasite damage). Details: treatment time 5 days.
Method: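 In vitro-cultured E. multilocularis metacestode vesicles (isolate H95, 2-4 mm) were treated in singlets with each drug of the Selleck FDA-approved library (426 drugs) at 20 µM for 5 days at 37°C. Damage was read as phosphoglucose isomerase (PGI) release into the medium, measured as the increase in absorbance at 340 nm. Activity was expressed as % of the positive control DB1127 (20 µM) after subtracting the DMSO control; a hit was defined as ≥50% of DB1127.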

SMILES	vesicle damage
O=C(c1ccc(OCCN2CCCCC2)cc1)c1c(-c2ccc(O)cc2)sc2cc(O)ccc12 [Evista]	-1.58%
COc1cccc2c1C(=O)c1c(O)c3c(c(O)c1C2=O)C[C@@](O)(C(C)=O)C[C@@H]3O[C@H]1C[C@H](N)[C@H](O)[C@H](C)O1 [Cerubidine]	2.71%
CNC[C@H](O)c1ccc(O)c(O)c1 [Epinephrine bitartrate]	-9.8%
O=C(O)C[C@H](O)C[C@H](O)/C=C/c1c(C2CC2)nc2ccccc2c1-c1ccc(F)cc1 [Pitavastatin calcium]	9.79%
CCOC(=O)[C@H](CCc1ccccc1)N[C@@H](C)C(=O)N1CCC[C@H]1C(=O)O [Enalapril maleate]	-7.58%
NS(=O)(=O)c1cc2c(cc1Cl)N=CNS2(=O)=O [Chlorothiazide]	6.87%
CNS(=O)(=O)Cc1ccc2[nH]cc(CCN(C)C)c2c1 [Sumatriptan succinate]	-3.44%
COCCOC(=O)C1=C(C)NC(C)=C(C(=O)OC/C=C/c2ccccc2)C1c1cccc([N+](=O)[O-])c1 (stereo not given) [Cilnidipine]	-6.38%
NC(=O)c1cccnc1 [Nicotinamide]	-7.36%
Cc1ccccc1N1C(=O)c2cc(S(N)(=O)=O)c(Cl)cc2NC1C (stereo not given) [Metolazone]	-1.83%
C[C@@](Cc1ccc(O)c(O)c1)(NN)C(=O)O [Carbidopa]	-4.87%
COc1c(C)c2c(c(O)c1C/C=C(\C)CCC(=O)OCCN1CCOCC1)C(=O)OC2 [Mycophenolate mofetil]	-1.81%
CN1CCN(C2=Nc3cc(Cl)ccc3Nc3ccccc32)CC1 [Clozapine]	1.79%
COc1ccc(-c2ccc3cc(C(=O)O)ccc3c2)cc1C12CC3CC(CC(C3)C1)C2 [Adapalene]	-0.608%
C[C@@H](O[C@H]1OCCN(Cc2n[nH]c(=O)[nH]2)[C@H]1c1ccc(F)cc1)c1cc(C(F)(F)F)cc(C(F)(F)F)c1 [Aprepitant]	31.4%
CNCCC(Oc1ccc(C(F)(F)F)cc1)c1ccccc1 (stereo not given) [Fluoxetine hydrochloride]	2.71%
CC(=O)[C@H]1CC[C@H]2[C@@H]3CCC4=CC(=O)CC[C@]4(C)[C@H]3CC[C@]12C [Progesterone]	-3.19%
NS(=O)(=O)c1cc(C(=O)O)c(NCc2ccco2)cc1Cl [Furosemide]	0.363%
Nc1nc2c(ncn2COCCO)c(=O)[nH]1 [Acyclovir]	-13.6%
NS(=O)(=O)Cc1noc2ccccc12 [Zonisamide]	-4.09%

SMILES	vesicle damage
COc1cc2c(cc1OC)C(=O)C(CC1CCN(Cc3ccccc3)CC1)C2 (stereo not given) [Donepezil hydrochloride]	2.56%
CC(=O)OCC(=O)[C@@]12N=C(C)O[C@@H]1C[C@H]1[C@@H]3CCC4=CC(=O)C=C[C@]4(C)[C@H]3[C@@H](O)C[C@@]12C [Deflazacort]	-13.4%
O=c1[nH]cnc2c1ncn2[C@H]1CC[C@@H](CO)O1 [Didanosine]	-2.52%
CC(C(=O)O)c1cccc(C(=O)c2ccccc2)c1 (stereo not given) [Ketoprofen]	-2.46%
COCCCOc1cc(C[C@@H](C[C@H](N)[C@@H](O)C[C@H](C(=O)NCC(C)(C)C(N)=O)C(C)C)C(C)C)ccc1OC [Aliskiren hemifumarate]	3.14%
O=S(=O)(O)CCS [Mesna]	-11.9%
O=C(CCCCCCC(=O)Nc1ccccc1)NO [Vorinostat]	-3.84%
CCn1cc(C(=O)O)c(=O)c2cc(F)c(N3CCNCC3)cc21 [Norfloxacin]	0.615%
O=C(O)/C=C/c1ccc(Cn2ccnc2)cc1 [Ozagrel]	-2.11%
CN(C)CC/C=C1/c2ccccc2COc2ccc(CC(=O)O)cc21 [Olopatadine hydrochloride]	-0.381%
Cc1ccc(C)c(OCCCC(C)(C)C(=O)O)c1 [Gemfibrozil]	2.47%
CCN(CC)C(=S)SSC(=S)N(CC)CC [Disulfiram]	-1.51%
CO[C@H]1C[C@@H]2CC[C@@H](C)[C@@](O)(O2)C(=O)C(=O)N2CCCC[C@H]2C(=O)O[C@H]([C@H](C)C[C@@H]2CC[C@@H](O)[C@H](OC)C2)CC(=O)[C@H](C)/C=C(\C)[C@@H](O)[C@@H](OC)C(=O)[C@H](C)C[C@H](C)/C=C/C=C/C=C/1C [Rapamycin]	-4.13%
CCCSc1ccc2[nH]c(NC(=O)OC)nc2c1 [Albendazole]	2.11%
NC(=O)c1cn(Cc2c(F)cccc2F)nn1 [Rufinamide]	-1.69%
NCCS(=O)(=O)O [Taurine]	3.35%
CCCCCCOC(=O)NC(=N)c1ccc(NCc2nc3cc(C(=O)N(CCC(=O)OCC)c4ccccn4)ccc3n2C)cc1	3.7%
Nc1nc(Cl)nc2c1ncn2[C@H]1C[C@H](O)[C@@H](CO)O1 [Cladribine]	-0.352%
NC(=O)c1cnccn1 [Pyrazinamide]	-10.2%
CC(C(=O)O)c1ccc(-c2ccccc2)c(F)c1 (stereo not given) [Flurbiprofen]	-1.29%

Another view of part of the listing above:
COc1c(C)c2c(c(O)c1C/C=C(\C)CCC(=O)OCCN1CCOCC1)C(=O)OC2 [Mycophenolate mofetil]
  vesicle damage: -1.81%
NS(=O)(=O)c1cc(C(=O)O)c(NCc2ccco2)cc1Cl [Furosemide]
  vesicle damage: 0.363%

From the supplement of paper PMC4256282, “Profound Activity of the Anti-cancer Drug Bortezomib against Echinococcus multilocularis Metacestodes Identifies the Proteasome as a Novel Drug Target for Cestodes” (PLoS Neglected Tropical Diseases, 2014)
